In US20260033988A1, “SYSTEM AND METHOD FOR ULTRASOUND-ENHANCED DELIVERY OF DRUGS” (Sonikure Holdings Limited, priority 2016, published 2026):
For at least one compound, name, drawing or mass did not settle the structure.

Tested on: experimental autoimmune uveitis (EAU)
Assay: In vivo delivery of dexamethasone into mice eyes for treatment of experimental autoimmune uveitis (ultrasound versus intravitreal injection)
Method: The procedure relates to an in vivo study of delivering small molecules into mice eyes for treatment of experimental autoimmune uveitis (EAU). The small molecules used were dexamethasone, with of a molecular weight of about […]. For a given animal subject, the drug was delivered via intravitreal injection (10 μg in 1 μL balanced salt solution), to the left eye. For the right eye, the drug (10 μg in 1 μL balanced salt solution, repeat 3 times) was delivered by 40 kHz ultrasound.
A timeline is illustrated of the experimental procedure. EAU mice were provided as described. The final n=2, as one mouse was dead on day 10 during the first treatment. On day 0, EAU induction occurred. Baseline imaging by confocal scanning laser ophthalmology (cSLO) and optical coherence tomography (OCT) occurred on day 0. On day 10, the drug was applied via ultrasound on the right eye. The drug was applied via intravitreal injection to the left eye. On day 13, imaging was conducted via cSLO and OCT. On days 13, 17, and 20, the drug was delivered to the right eye via ultrasound. On day 21, the mice were sacrificed for histology. Imaging was conducted by cSLO and OCT.

SMILES: C[C@@H]1C[C@H]2[C@@H]3CCC4=CC(=O)C=C[C@]4(C)[C@@]3(F)[C@@H](O)C[C@]2(C)[C@@]1(O)C(=O)CO [dexamethasone]
- infiltrated cells around the optic nerve head (fundus photos, FFA) (Mouse 1 right eye (40 kHz ultrasound) compared to left eye (intravitreal injection)): less infiltrated cells around the optic nerve head
- vasculitis (fundus photos, FFA) (Mouse 2 right eye (40 kHz ultrasound) compared to left eye (intravitreal injection)): less severe vasculitis
- infiltrated cells around the optic nerve head (OCT sections) (right eye of Mouse 1 and Mouse 2 (40 kHz ultrasound) compared to left eye (intravitreal injection)): less infiltrated cells around the optic nerve head
